Laboratory results from patent publication US9113631B2, “1,3-diaryl-substituted heterocyclic pesticides” (E I DU PONT DE NEMOURS AND COMPANY, priority 2011, dated 2015).
Some results were stated once for a whole list of compounds, not compound by compound. At least one compound was matched to its structure with a doubt left.

What was measured:
[1] = system: fall armyworm (Spodoptera frugiperda); test: Test B: control of fall armyworm on maize plant, foliar spray; assay type: in vivo; conditions: 1-day-old larvae on maize plant, 25° C., visually rated
[2] = system: diamondback moth (Plutella xylostella); test: Test A: control of diamondback moth on radish plant, foliar spray; assay type: in vivo; conditions: neonate larvae on radish plant, 6 days, 25° C., visually assessed

| SMILES | control efficacy, very good to excellent: feeding damage (40% or less feeding damage and/or 100% mortality) ([2]; sprayed at 50 ppm) [%] | control efficacy, very good to excellent: feeding damage (40% or less feeding damage and/or 100% mortality) ([2]; sprayed at 250 ppm) [%] | other results |
| --- | --- | --- | --- |
| N#CC1CCN(Cc2cn(-c3cccc(Cl)c3F)nc2-c2ccccc2F)CC1 [Compound 591] | – | – | control efficacy, very good to excellent: feeding damage (40% or less feeding damage and/or 100% mortality) ([1]; sprayed at 250 ppm): ≤ 40% |
| Fc1ccc(-n2cc(CN3CCC(Cl)CC3)c(-c3ccccc3F)n2)cc1Cl [Compound 585] | – | – | control efficacy, very good to excellent: feeding damage (40% or less feeding damage and/or 100% mortality) ([1]; sprayed at 250 ppm): ≤ 40% |
| O=C1OCCN1C1CCN(Cc2cn(-c3ccc(Cl)cc3)nc2-c2c(F)cc(F)cc2F)CC1 [Compound 745] | – | – | control efficacy, very good to excellent: feeding damage (40% or less feeding damage and/or 100% mortality) ([1]; sprayed at 250 ppm): ≤ 40% |
| Cc1ccccc1-c1nn(-c2ccc(OC(F)(F)F)cc2)cc1CN1CCC(C#N)CC1 [Compound 559] | – | – | control efficacy, very good to excellent: feeding damage (40% or less feeding damage and/or 100% mortality) ([1]; sprayed at 50 ppm): ≤ 40%; control efficacy, very good to excellent: feeding damage (40% or less feeding damage and/or 100% mortality) ([1]; sprayed at 250 ppm): ≤ 40% |
| N#CC1CCN(Cc2cn(-c3ccc(Br)cn3)nc2-c2ccccc2F)CC1 [Compound 613] | – | – | control efficacy, very good to excellent: feeding damage (40% or less feeding damage and/or 100% mortality) ([1]; sprayed at 50 ppm): ≤ 40%; control efficacy, very good to excellent: feeding damage (40% or less feeding damage and/or 100% mortality) ([1]; sprayed at 250 ppm): ≤ 40% |
| CC(C)(C)OC(=O)NC1CCCN(Cc2cn(-c3ccc(Cl)c(Cl)c3)nc2-c2ccccc2F)C1 (stereo not shown) [Compound 726] | – | – | control efficacy, very good to excellent: feeding damage (40% or less feeding damage and/or 100% mortality) ([1]; sprayed at 250 ppm): ≤ 40% |
| Fc1cc(Cl)ccc1-c1nn(-c2ccc(Cl)cc2)cc1CN1CCOCC1 [Compound 607] | – | – | control efficacy, very good to excellent: feeding damage (40% or less feeding damage and/or 100% mortality) ([1]; sprayed at 50 ppm): ≤ 40%; control efficacy, very good to excellent: feeding damage (40% or less feeding damage and/or 100% mortality) ([1]; sprayed at 250 ppm): ≤ 40% |
| Cc1nnc(C2CCN(Cc3cn(-c4ccc(Cl)cc4)nc3-c3ccccc3F)CC2)o1 [Compound 721] | – | – | control efficacy, very good to excellent: feeding damage (40% or less feeding damage and/or 100% mortality) ([1]; sprayed at 50 ppm): ≤ 40%; control efficacy, very good to excellent: feeding damage (40% or less feeding damage and/or 100% mortality) ([1]; sprayed at 250 ppm): ≤ 40% |
| Fc1cc(-n2cc(CN3CCOCC3)c(-c3ccccc3Cl)n2)ccc1Cl [Compound 552] | – | – | control efficacy, very good to excellent: feeding damage (40% or less feeding damage and/or 100% mortality) ([1]; sprayed at 50 ppm): ≤ 40% |
| Fc1ccccc1-c1nn(-c2nc3ccccc3s2)cc1CN1CCOCC1 [Compound 675] | – | – | control efficacy, very good to excellent: feeding damage (40% or less feeding damage and/or 100% mortality) ([1]; sprayed at 250 ppm): ≤ 40% |
| N#CC1CCN(Cc2cn(-c3ccc(F)c(F)c3F)nc2-c2ccccc2F)CC1 [Compound 730] | – | – | control efficacy, very good to excellent: feeding damage (40% or less feeding damage and/or 100% mortality) ([1]; sprayed at 250 ppm): ≤ 40% |
| O=CN[C@H]1CCN(Cc2cn(-c3cccc(C(F)(F)F)c3)nc2-c2ccc(F)cc2)C1 [Compound 666] | ≤ 40 | – | – |
| Cn1cnnc1C1CCN(Cc2cn(-c3ccc(Cl)cn3)nc2-c2ccc(F)cc2F)CC1 [Compound 835] | ≤ 40 | – | – |
| Fc1ccccc1-c1nn(-c2ccc(Cl)cc2)cc1CN1CCOCC1 [Compound 631] | ≤ 40 | – | – |
| COC(=O)C1CCN(Cc2cn(-c3ccc(F)c(F)c3)nc2-c2ccccc2C(F)(F)F)CC1 [Compound 539] | ≤ 40 | – | – |
| CS(=O)(=O)N[C@@H]1CCN(Cc2cn(-c3cccc(C(F)(F)F)c3)nc2-c2ccc(F)cc2)C1 [Compound 661] | ≤ 40 | – | – |
| COC(=O)C1CCN(Cc2cn(-c3cccc(F)c3)nc2-c2ccccc2F)CC1 [Compound 44] | ≤ 40 | ≤ 40 | – |
| N#CC1CCN(Cc2cn(-c3ccc4ccccc4n3)nc2-c2ccc(F)cc2F)CC1 [Compound 816] | ≤ 40 | – | – |
| COC(=O)C1CCN(Cc2cn(-c3ccc(OC(F)(F)F)cc3)nc2-c2ccccc2C)CC1 [Compound 562] | ≤ 40 | – | – |
| N#CC1CCN(Cc2cn(-c3ncc(Cl)cc3F)nc2-c2ccccc2F)CC1 [Compound 867] | ≤ 40 | – | – |

| SMILES | control efficacy, very good to excellent: feeding damage (40% or less feeding damage and/or 100% mortality) ([2]; sprayed at 50 ppm) [%] | control efficacy, very good to excellent: feeding damage (40% or less feeding damage and/or 100% mortality) ([2]; sprayed at 250 ppm) [%] | other results |
| --- | --- | --- | --- |
| O=CC1CCCN(Cc2cn(-c3ccc(Cl)cc3)nc2-c2ccccc2F)C1 (stereo not shown) [Compound 310] | – | ≤ 40 | – |
| CCOC(=O)N1CCN(Cc2cn(-c3cccc(F)c3)nc2-c2ccccc2F)CC1 [Compound 208] | – | ≤ 40 | – |
| CC(C)c1ccc(-n2cc(CN3CCC(C#N)CC3)c(-c3ccccc3F)n2)cc1 [Compound 808] | ≤ 40 | – | – |
| N#CC1CCN(Cc2cn(-c3ccc(Cl)c(Cl)c3)nc2-c2ccccc2F)C1 (stereo not shown) [Compound 518] | ≤ 40 | – | – |
| COC(=O)C1CCN(Cc2cn(-c3ccc(F)cc3F)nc2-c2ccc(F)cc2)CC1 [Compound 9] | ≤ 40 | ≤ 40 | – |
| CCOC(=O)N1CCN(Cc2cn(-c3ccccc3F)nc2-c2ccccc2F)CC1 [Compound 207] | ≤ 40 | ≤ 40 | – |
| COC(=O)C1CCN(Cc2cn(-c3ccc(Cl)cc3)nc2-c2ccccc2F)CC1 [Compound 75] | ≤ 40 | ≤ 40 | – |
| CCOC(=O)NC1CCN(Cc2cn(-c3cccc(Cl)c3)nc2-c2ccc(F)cc2)CC1 [Compound 28] | ≤ 40 | ≤ 40 | – |
| N#CC1(c2ccccc2)CCN(Cc2cn(-c3ccc(OC(F)(F)F)cc3)nc2-c2ccc(F)cc2F)CC1 [Compound 70] | – | ≤ 40 | – |
| O=C1CCC2(CCN(Cc3cn(-c4ccc(Cl)cc4)nc3-c3ccccc3)CC2)N1 [Compound 775] | ≤ 40 | – | – |
| CCOC(=O)NC1CCN(Cc2cn(-c3cccc(Cl)c3)nc2-c2cccc(F)c2)CC1 [Compound 27] | – | ≤ 40 | – |
| CC(=O)NC1CCCN(Cc2cn(-c3ccc(Cl)c(Cl)c3)nc2-c2ccccc2C(F)(F)F)C1 (stereo not shown) [Compound 315] | ≤ 40 | – | – |
| COc1ccc(F)cc1-c1nn(-c2ccc(Cl)cc2)cc1CN1CCC(C#N)CC1 [Compound 852] | ≤ 40 | – | – |
| OCC1CCCN(Cc2cn(-c3ccc(Cl)cc3)nc2-c2ccccc2F)C1 (stereo not shown) [Compound 508] | ≤ 40 | ≤ 40 | – |
| CC(=O)C1CCN(Cc2cn(-c3ccc(Cl)cc3)nc2-c2ccccc2F)CC1 [Compound 832] | ≤ 40 | – | – |
| COC(=O)C1CCN(Cc2cn(-c3ccc(F)cc3F)nc2-c2ccc(Cl)cc2)CC1 [Compound 17] | – | ≤ 40 | – |
| Fc1cccc(-c2nn(-c3cccc(Cl)c3)cc2CN2CCC(C(F)(F)F)CC2)c1 [Compound 25] | – | ≤ 40 | – |
| COC(=O)C1CCN(Cc2cn(-c3ccc(F)c(F)c3)nc2-c2ccccc2Br)CC1 [Compound 535] | ≤ 40 | – | – |
| FC(F)(F)c1ccccc1-c1nn(-c2ccc(Cl)c(Cl)c2)cc1CN1CCOCC1 [Compound 528] | ≤ 40 | – | – |
